From paper PMC12827327
These are yes or no findings as the source states them, for the method shown.

Biological target: human SH3BGRL (human), O75368
Assay: AUC; sedimentation velocity of each SH3BGRL isoform alone; 50,000 rpm, 20 °C; 25 mM HEPES pH 7.4, 50 mM NaCl, 0.5 mM TCEP; continuous c(s) model (SEDFIT); both purified
Conditions: remark: other sources report otherwise

- binding: no binding
B1: human SH3BGRL, O75368 1-114 (protein)
chain: MVIRVYIASSSGSTAIKKKQQDVLGFLEANKIGFEEKDIAANEENRKWMRENVPENSRPATGYPLPPQIFNESQYRGDYDAFFEARENNAVYAFLGLTAPPGSKEAEVQAKQQA
